{"source": "PubChem BioAssay AID493014", "about": "(National Center for Advancing Translational Sciences (NCATS), 2011)", "note": "Hit rate of the full screen: of about 340,000 compounds, about 170 (0.05%) were called active. Inconclusive means that the source gave no clear call. Such entries were picked first, then a sample of the others. Calls come from the whole dose curve; as a rule, active = well fitted inhibition curve with a large enough effect in the signal ratio, with a control signal flat (not every such curve was filed as active); inconclusive = small, poorly fitted or top-dose-only effect, or effect the other way, or a change in a side signal; inactive = flat fitted curve, though single readings scatter; the % refers to the signal ratio. A potency beside an inconclusive call is a rough fit, not a confirmed value. Potency is the fitted concentration of half-maximal effect."}
{"test": "qHTS Assay to Find Inhibitors of Chronic Active B-Cell Receptor Signaling;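 for activity change, negative = inhibition: plate controls were basal doxycycline-induced cells for no effect and cells given 10 µM MG132 for full effect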", "details": "ABC-DLBCL IkBa-CBG/CBR reporter, luminescence ratio (green luciferase fused to IkBa over red control in TMD8 lymphoma cells), 4 h; activity change, negative = inhibition: at 46.1 µM (top of the series)", "outline": "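TMD8 ABC-DLBCL cells carrying doxycycline-inducible green luciferase fused to IkappaBalpha plus unfused red luciferase were exposed to compounds (up to 46 uM) for 4 hrs at 37C. Activity came from the overlap-corrected green/red luminescence ratio.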"}
{"smiles": "COc1cc([N+](=O)[O-])cc(/C=N/NC(=O)CSc2ccccn2)c1O", "activity change, negative = inhibition": "inconclusive: 4.36%"}
{"smiles": "O=C(O)COc1ccc(NC(=O)c2ccc3c(c2)C(=O)N(Cc2ccccc2)C3=O)cc1", "activity change, negative = inhibition": "inconclusive: 5.05%"}
{"smiles": "COc1c(Br)cc([N+](=O)[O-])c(OC)c1C(=O)NC(=O)Nc1nc(C)cc(C)n1", "Potency": "inconclusive: 15.8 µM [falling, partial curve, poor fit]"}
{"smiles": "COc1ccc(S(=O)(=O)Nc2c3ccccc3nc(=O)n2-c2ccccc2)cc1", "activity change, negative = inhibition": "inconclusive: 3.9%"}
{"smiles": "COc1ccccc1NC(=O)Nc1nnc(C(C)C)s1", "activity change, negative = inhibition": "inconclusive: -2.89%"}
{"smiles": "O=C(NCCC1=CCCCC1)C1CCN(S(=O)(=O)c2ccc(Br)s2)CC1", "activity change, negative = inhibition": "inconclusive: 0.669%"}
{"smiles": "CN(C)CCCN(C(=O)CCc1ccccc1)c1nc2c(F)cccc2s1", "activity change, negative = inhibition": "inconclusive: -0.274%"}
{"smiles": "CCn1c(-c2ccc(F)cc2)cnc1SCC(=O)N1CCCCC1C", "note": "(stereo not drawn)", "activity change, negative = inhibition": "inconclusive: 2.64%"}
{"smiles": "CCOC(=O)N1CCN(c2c(-c3ccc(C(C)C)cc3)c(=O)c2=O)CC1", "activity change, negative = inhibition": "inactive"}
{"smiles": "OC(COC(c1ccc(Cl)cc1)c1ccc(Cl)cc1)CN1CCc2ccccc2C1", "note": "(stereo not drawn)", "activity change, negative = inhibition": "inconclusive: -3.96%"}
{"smiles": "Cc1c(Cl)ccc(S(=O)(=O)N2CCN=C2c2ccccc2)c1Cl", "activity change, negative = inhibition": "inactive"}
{"smiles": "COc1ccc2[nH]c(=O)c(C(c3nnnn3C3CCCCC3)N3CCN(C)CC3)cc2c1", "note": "(stereo not drawn)", "activity change, negative = inhibition": "inactive"}
{"smiles": "COc1ccccc1-n1cnc2c(c1=O)c1nc3ccccc3nc1n2-c1ccc(C)c(C)c1", "activity change, negative = inhibition": "inconclusive: 8.27%"}
{"smiles": "Nc1ccccc1SCC(O)Cn1ccc2ccccc21", "note": "(stereo not drawn)", "activity change, negative = inhibition": "inconclusive: -6.69%"}
{"smiles": "O=C(Nc1ccc2c(c1)C(=O)N(c1ccccc1)C2=O)C1CCCO1", "note": "(stereo not drawn)", "Potency": "inconclusive: 0.58 µM [activator, partial curve]"}
{"smiles": "COc1ccc(NC(=O)COC(=O)C23CC4CC(CC(NC(C)=O)(C4)C2)C3)cc1S(=O)(=O)N1CCOCC1", "activity change, negative = inhibition": "inactive"}
{"smiles": "COC(=O)C(Cc1c[nH]c2ccccc12)NC(=O)CNC(C)=O", "note": "(stereo not drawn)", "activity change, negative = inhibition": "inactive"}
{"smiles": "CCOC(=O)C1CCN(C(=O)CN2C(=O)c3cccnc3Oc3ccccc32)CC1", "activity change, negative = inhibition": "inactive"}
{"smiles": "CCOc1ccccc1CN1CCN(Cc2cc3ccccc3[nH]2)CC1CCO", "note": "(stereo not drawn)", "Potency": "inconclusive: 11.2 µM [falling, partial curve]"}
{"smiles": "Cc1ccc(NCCC(=O)c2ccc(Cl)c(Cl)c2)cc1", "Potency": "inconclusive: 6.31 µM [falling, full curve]"}
{"smiles": "Cc1ccc(S(=O)(=O)N(Cc2ccccc2)c2ccccc2C(=O)N2CCCCC2)cc1", "activity change, negative = inhibition": "inactive"}
{"smiles": "CSc1nnc(-c2ccccc2)o1", "activity change, negative = inhibition": "inconclusive: 3.31%"}
{"smiles": "CC(=O)N(CCC1(c2ccc(C)cc2)CCOC(C(C)C)C1)Cc1ccco1", "note": "(stereo not drawn)", "activity change, negative = inhibition": "inconclusive: 2.19%"}
{"smiles": "CCOC(=O)NN=C1CN(S(=O)(=O)c2ccc(C)cc2)C1", "activity change, negative = inhibition": "inactive"}
{"smiles": "O=c1c2ccccc2ncn1-c1ccc(Br)cc1[N+](=O)[O-]", "activity change, negative = inhibition": "inactive"}
{"smiles": "O=C(Nc1nc(-c2ccc(-c3ccccc3)cc2)cs1)c1cnccn1", "activity change, negative = inhibition": "inconclusive: -17.2%"}
{"smiles": "Clc1ccccc1CN1CCN(CCCc2ccccc2)CC1", "activity change, negative = inhibition": "inconclusive: 9.91%"}
{"smiles": "Cc1ccc(C(=O)NNC2=NC(C)(C)Cc3ccccc32)cc1", "activity change, negative = inhibition": "inconclusive: -1.86%"}
{"smiles": "CC(C)(C)c1ccc(NC(=O)CSc2nnc(-c3n[nH]c4ccccc34)o2)cc1", "activity change, negative = inhibition": "inconclusive: 1.48%"}
{"smiles": "COc1ccc(NC(=O)/C=C2\\SC(=O)NC2=O)cc1", "Potency": "inconclusive: 17.8 µM [falling, partial curve, poor fit]"}
{"smiles": "O=C(O)Cc1ccc(S(=O)(=O)Nc2ccccc2C(=O)O)cc1", "activity change, negative = inhibition": "inconclusive: 1.88%"}
{"smiles": "CCCCOCCCNC(=O)CN1C(=O)c2ccccc2C1=O", "activity change, negative = inhibition": "inactive"}
{"smiles": "CCOc1ccc(C(=O)NCc2ccc3c(c2)CCN3C(=O)c2ccc(C)cc2)cc1OCC", "activity change, negative = inhibition": "inactive"}
{"smiles": "CN(Cc1nc(-c2cccs2)no1)CC1(N2CCOCC2)CCCCC1", "activity change, negative = inhibition": "inconclusive: 4.63%"}
{"smiles": "CCCn1c(N)c(C(=O)CSc2n[nH]c(-c3ccc(C)cc3)n2)c(=O)[nH]c1=O", "activity change, negative = inhibition": "inconclusive: 3.45%"}
{"smiles": "CCOC(=O)C1=c2s/c(=C\\c3cccnc3)c(=O)n2C(N)=C(C(=O)OC)C1c1cccnc1", "note": "(stereo not drawn)", "activity change, negative = inhibition": "inconclusive: -25.7%"}
{"smiles": "CCNC(=O)NC(=O)COC(=O)CCCc1nc2ccccc2s1", "activity change, negative = inhibition": "inconclusive: 2.99%"}
{"smiles": "COc1ccccc1/C=N/OCc1cc(C(C)=O)ccc1OC", "Potency": "inconclusive: 10 µM [falling, partial curve]"}
{"smiles": "OC(CN1CCN(c2ccccc2F)CC1)c1ccc(F)cc1", "note": "(stereo not drawn)", "activity change, negative = inhibition": "inconclusive: 2.56%"}
{"smiles": "CCOC(=O)c1cc(-c2ccccc2)n(CCCC(=O)Nc2cc(C)ccc2OC)c1C", "activity change, negative = inhibition": "inactive"}
{"smiles": "Cc1nc2c(ccc3nc(NC(=O)c4ccc(S(=O)(=O)N(C)C)cc4)sc32)s1", "Potency": "inconclusive: 17.8 µM [falling, single point]"}
{"smiles": "COc1cc(OC)c(OC)cc1/C=N/NC(=S)NCC1CCCO1", "note": "(stereo not drawn)", "Potency": "inconclusive: 16.4 µM [falling, partial curve]"}
{"smiles": "C=CCn1cnc2c(nnn2-c2ccc(Cl)cc2)c1=O", "activity change, negative = inhibition": "inconclusive: 14.1%"}
{"smiles": "CCCC[n+]1c2ccccc2cc2ccccc21", "activity change, negative = inhibition": "inconclusive: 11.9%"}
{"smiles": "COc1cccc(/C=N/NC(=S)Nc2cccc(C(=O)O)c2)c1", "Potency": "inconclusive: 22.4 µM [falling, partial curve]"}
{"smiles": "COC(=O)c1cc(NC(=O)Nc2ccccc2OC)cc(C(=O)OC)c1", "activity change, negative = inhibition": "inconclusive: -0.478%"}
{"smiles": "COc1ccc(Cl)cc1C(=O)n1cnc2ccccc21", "activity change, negative = inhibition": "inactive"}
{"smiles": "COc1cccc(OCCOc2ccc(/C=C3\\C(=N)N4N=C(S(C)(=O)=O)SC4=NC3=O)cc2OC)c1", "activity change, negative = inhibition": "inconclusive: -2.15%"}
{"smiles": "Nc1nc(N)c2ncc(C(=O)CCc3ccccc3)nc2n1", "activity change, negative = inhibition": "inconclusive: -21.1%"}
{"smiles": "Cc1ccc(CNC(=O)c2ccc[nH]2)cc1", "activity change, negative = inhibition": "inactive"}
{"smiles": "CC(=O)c1cc(C#N)c(SCc2ccccc2)nc1C", "activity change, negative = inhibition": "inconclusive: 0.728%"}
{"smiles": "O=C(N/N=C/c1ccc2c(c1)OCO2)c1ccc(NS(=O)(=O)c2cccs2)cc1", "Potency": "inconclusive: 22.4 µM [falling, partial curve]"}
{"smiles": "COc1ccccc1OC(=O)CCc1nc2ccccc2s1", "Potency": "inconclusive: 35.5 µM [falling, single point]"}
{"smiles": "CCN(CC)CCNC(=O)C1(O)c2cc(Br)ccc2NC(=O)N1c1ccc(Cl)cc1", "note": "(stereo not drawn)", "activity change, negative = inhibition": "inconclusive: -0.583%"}
{"smiles": "COc1ccc(N2CCN(C(=O)COC(=O)c3cccc(S(=O)(=O)Nc4cccc(C)c4)c3)CC2)cc1", "activity change, negative = inhibition": "inactive"}
{"smiles": "CCOc1cc(NS(=O)(=O)c2ccccc2)c(OCC)cc1NC(=O)c1ccco1", "activity change, negative = inhibition": "inconclusive: 22.8%"}
{"smiles": "CC(=O)c1ccc(Nc2c3c(c(C#N)c4nc5ccccc5n24)CCC3)cc1", "Potency": "inconclusive: 3.66 µM [falling, full curve, poor fit]"}
{"smiles": "Cc1cccc(CCNC(=O)CCc2nc(-c3ccccc3F)no2)c1", "activity change, negative = inhibition": "inconclusive: 2.64%"}
{"smiles": "Cc1ccccc1C(=O)Nc1ccc(N2CCCC2)cc1", "activity change, negative = inhibition": "inconclusive: 329%"}
{"smiles": "COc1cc(/C=C/C(=O)NC(=O)c2ccccc2O)ccc1OC(C)=O", "Potency": "inconclusive: 3.98 µM [rising, partial curve, poor fit]"}
{"smiles": "CC(=O)N1c2ccc(S(=O)(=O)NCC3CCC(C(=O)NC4CCCCC4)CC3)cc2CC1C", "note": "(stereo not drawn)", "activity change, negative = inhibition": "inactive"}
{"smiles": "Cc1ccc(/C=C2/NC(=O)N(c3ccccc3)C2=O)o1", "Potency": "inconclusive: 12.6 µM [falling, partial curve]"}
{"smiles": "COc1ccc(-c2nc(C=O)cs2)cc1", "activity change, negative = inhibition": "inconclusive: -15.5%"}
{"smiles": "Cc1nc(-c2cccc(S(=O)(=O)N3CCCCCC3)c2)cs1", "activity change, negative = inhibition": "inconclusive: 24%"}
{"smiles": "COC(=O)N1c2ccccc2C=Cc2ccccc21", "activity change, negative = inhibition": "inconclusive: 11.5%"}
{"smiles": "CCOc1ccc(-c2nnn(CCC(=O)O)n2)cc1OC", "Potency": "inconclusive: 25.9 µM [falling, single point]"}
{"smiles": "Cc1ccc(-c2n[nH]c(=O)c3ccccc23)cc1S(=O)(=O)N(C)C", "activity change, negative = inhibition": "inactive"}
{"smiles": "COc1ccc(/C(C)=N/NC(=S)NCCc2ccccc2)cc1", "Potency": "inconclusive: 5.62 µM [cytotoxic, single point]"}
{"smiles": "N=C(N)c1ccc(Cl)cc1", "activity change, negative = inhibition": "inactive"}
{"smiles": "O=C(NC1CCCCC1)N(Cc1cc2cc3c(cc2[nH]c1=O)OCCO3)C1CCCCC1", "activity change, negative = inhibition": "inconclusive: 5.97%"}
{"smiles": "Cc1ccc(OCCNC(=O)CNC(=O)c2ccc3c(c2)OCO3)cc1", "activity change, negative = inhibition": "inconclusive: -0.808%"}
{"smiles": "COc1cccc(C(=O)Nc2cc(NC(=O)c3ccco3)ccc2OC)c1", "activity change, negative = inhibition": "inconclusive: 7.13%"}
{"smiles": "Cc1nn(CCCC(=O)Nc2cnn(Cc3ccc(F)cc3)c2)c(C)c1[N+](=O)[O-]", "activity change, negative = inhibition": "inconclusive: 24.7%"}
{"smiles": "Cc1ccc(C(=O)/C=C/c2ccc(-c3ccccc3[N+](=O)[O-])o2)cc1", "activity change, negative = inhibition": "inactive"}
{"smiles": "COc1cc(OC)c2cc(C(=O)N[C@@H](Cc3ccccc3)C(=O)O)n(C)c2c1", "activity change, negative = inhibition": "inactive"}
{"smiles": "c1ccc(-c2nnc3ccc(N4CCC5(CC4)OCCO5)nn23)cc1", "Potency": "inconclusive: 15.8 µM [falling, single point]"}
{"smiles": "CC(C)(C)C(=O)NCCCc1nc2ccccc2n1CCCOc1ccc(Cl)cc1", "activity change, negative = inhibition": "inconclusive: -22%"}
{"smiles": "Cc1ccc2nc(Nc3ccc4[nH]c(=O)[nH]c4c3)c(-n3nc(C)cc3C)nc2c1", "Potency": "inconclusive: 0.731 µM [activator, full curve]"}
{"smiles": "COc1cccc(/C=N/NC(=O)CC2C(=O)NN=C2C)c1O", "note": "(stereo not drawn)", "activity change, negative = inhibition": "inactive"}
{"smiles": "O=C(CN1C(=O)NC2(CCCCCC2)C1=O)c1ccc2c(c1)OCCO2", "activity change, negative = inhibition": "inconclusive: 2.9%"}
{"smiles": "CC1(C)CC(=O)c2cc(OCC(=O)NCCN3CCCc4ccccc43)ccc2O1", "activity change, negative = inhibition": "inactive"}
{"smiles": "CCOc1ccc(S(=O)(=O)Nc2ccc(F)cc2)c(C)c1C", "activity change, negative = inhibition": "inconclusive: 8.51%"}
{"smiles": "COc1ccc(NS(=O)(=O)c2cc(NC(=O)c3cncc(Br)c3)ccc2OC)cc1", "activity change, negative = inhibition": "inconclusive: 4.72%"}
